Assay results taken from paper PMC5421940.
No constants are given. Whether binding was seen depends on the method and setting. In cells and extracts the contact can be indirect. Binding calls can cover weak binding; strength is not graded here. Sequences can lack the tags named with a protein.

Target: GFP-MCPyV tAg A101R (Merkel cell polyomavirus)
Experiment: co-IP

B1: FLAG-PP4c (expressed in cells) (enzyme, UniProt P60510 1-307)
chain: MAEISDLDRQIEQLRRCELIKESEVKALCAKAREILVEESNVQRVDSPVTVCGDIHGQFYDLKELFRVGGDVPETNYLFMGDFVDRGFYSVETFLLLLALKVRYPDRITLIRGNHESRQITQVYGFYDECLRKYGSVTVWRYCTEIFDYLSLSAIIDGKIFCVHGGLSPSIQTLDQIRTIDRKQEVPHDGPMCDLLWSDPEDTTGWGVSPRGAGYLFGSDVVAQFNAANDIDMICRAHQLVMEGYKWHFNETVLTVWSAPNYCYRCGNVAAILELDEHLQKDFIIFEAAPQETRGIPSKKPVADYFL
B1 was tested, and the binding was “binds”.
